± gives the standard deviation of the averaged measurements. Some of the results follow.
Compound: Nc1nc2c(ncn2[C@@H]2O[C@H](COP(=O)(O)OP(=O)(O)OP(=O)(O)O)[C@@H](O)[C@H]2O)c(=O)[nH]1 [guanosine triphosphate]
Test: NP40-soluble protein abundance relative to vehicle (solubility fold change) (ratio); higher = more soluble protein in presence of GTP
Outline: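 Jurkat crude lysate (Dounce-homogenised) was treated with eight concentrations from 0.1 to 10 mM for 10 min at room temperature, then 3 min at 37 °C. It was solubilised with 0.8% NP40 and benzonase (60 min, 4 °C) and ultracentrifuged, and the supernatant was TMT-labelled for LC-MS/MS. Intensities were vsn-normalised, and the value is the fold change against the NP40-processed vehicle per replicate, from three independent experiments.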

Sequences of proteins named here, by UniProt entry; tags and fusion partners are left off. A change or cut given only in a name is not applied to a line headed by its entry.
UniProt Q9BVC3, whole entry: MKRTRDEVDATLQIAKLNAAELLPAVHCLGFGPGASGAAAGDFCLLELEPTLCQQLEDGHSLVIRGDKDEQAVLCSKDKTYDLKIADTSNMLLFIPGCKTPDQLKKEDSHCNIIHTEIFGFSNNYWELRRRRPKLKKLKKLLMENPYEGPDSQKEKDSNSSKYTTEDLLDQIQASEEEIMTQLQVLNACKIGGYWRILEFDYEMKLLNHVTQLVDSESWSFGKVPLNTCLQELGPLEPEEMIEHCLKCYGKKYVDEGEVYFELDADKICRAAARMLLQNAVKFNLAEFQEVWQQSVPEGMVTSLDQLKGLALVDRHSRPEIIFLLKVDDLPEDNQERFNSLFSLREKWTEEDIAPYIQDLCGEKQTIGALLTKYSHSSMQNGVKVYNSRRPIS
UniProt Q9BUB5: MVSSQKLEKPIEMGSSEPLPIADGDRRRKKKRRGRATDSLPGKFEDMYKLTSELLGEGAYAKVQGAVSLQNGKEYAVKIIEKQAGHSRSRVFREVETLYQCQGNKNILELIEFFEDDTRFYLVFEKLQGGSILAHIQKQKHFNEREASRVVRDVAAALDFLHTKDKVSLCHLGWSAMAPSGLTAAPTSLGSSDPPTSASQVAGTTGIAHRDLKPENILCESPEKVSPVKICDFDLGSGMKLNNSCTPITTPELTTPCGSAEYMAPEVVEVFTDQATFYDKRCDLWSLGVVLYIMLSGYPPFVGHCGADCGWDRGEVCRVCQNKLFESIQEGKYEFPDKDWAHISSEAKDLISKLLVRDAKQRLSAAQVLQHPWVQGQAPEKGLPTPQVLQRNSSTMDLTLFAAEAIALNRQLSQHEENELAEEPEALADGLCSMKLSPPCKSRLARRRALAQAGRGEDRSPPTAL
UniProt Q96PK6: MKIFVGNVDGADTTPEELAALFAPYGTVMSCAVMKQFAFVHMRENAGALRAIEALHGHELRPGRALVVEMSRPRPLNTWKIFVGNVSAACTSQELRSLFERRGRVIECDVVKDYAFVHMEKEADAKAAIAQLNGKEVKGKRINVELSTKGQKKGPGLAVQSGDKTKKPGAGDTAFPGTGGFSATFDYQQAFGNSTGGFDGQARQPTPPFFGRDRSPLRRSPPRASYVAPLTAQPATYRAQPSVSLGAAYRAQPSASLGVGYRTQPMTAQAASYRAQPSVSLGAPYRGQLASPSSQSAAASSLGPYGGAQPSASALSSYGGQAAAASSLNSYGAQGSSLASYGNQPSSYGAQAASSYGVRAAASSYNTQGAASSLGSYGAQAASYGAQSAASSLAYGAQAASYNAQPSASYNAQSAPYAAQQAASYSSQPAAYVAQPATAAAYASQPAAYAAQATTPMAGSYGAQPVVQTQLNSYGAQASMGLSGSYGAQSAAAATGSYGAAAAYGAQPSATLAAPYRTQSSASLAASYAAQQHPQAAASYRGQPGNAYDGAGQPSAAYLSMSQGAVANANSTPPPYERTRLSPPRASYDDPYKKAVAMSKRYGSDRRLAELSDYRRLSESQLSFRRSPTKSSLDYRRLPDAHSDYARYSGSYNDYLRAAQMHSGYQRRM
UniProt Q9BQG0: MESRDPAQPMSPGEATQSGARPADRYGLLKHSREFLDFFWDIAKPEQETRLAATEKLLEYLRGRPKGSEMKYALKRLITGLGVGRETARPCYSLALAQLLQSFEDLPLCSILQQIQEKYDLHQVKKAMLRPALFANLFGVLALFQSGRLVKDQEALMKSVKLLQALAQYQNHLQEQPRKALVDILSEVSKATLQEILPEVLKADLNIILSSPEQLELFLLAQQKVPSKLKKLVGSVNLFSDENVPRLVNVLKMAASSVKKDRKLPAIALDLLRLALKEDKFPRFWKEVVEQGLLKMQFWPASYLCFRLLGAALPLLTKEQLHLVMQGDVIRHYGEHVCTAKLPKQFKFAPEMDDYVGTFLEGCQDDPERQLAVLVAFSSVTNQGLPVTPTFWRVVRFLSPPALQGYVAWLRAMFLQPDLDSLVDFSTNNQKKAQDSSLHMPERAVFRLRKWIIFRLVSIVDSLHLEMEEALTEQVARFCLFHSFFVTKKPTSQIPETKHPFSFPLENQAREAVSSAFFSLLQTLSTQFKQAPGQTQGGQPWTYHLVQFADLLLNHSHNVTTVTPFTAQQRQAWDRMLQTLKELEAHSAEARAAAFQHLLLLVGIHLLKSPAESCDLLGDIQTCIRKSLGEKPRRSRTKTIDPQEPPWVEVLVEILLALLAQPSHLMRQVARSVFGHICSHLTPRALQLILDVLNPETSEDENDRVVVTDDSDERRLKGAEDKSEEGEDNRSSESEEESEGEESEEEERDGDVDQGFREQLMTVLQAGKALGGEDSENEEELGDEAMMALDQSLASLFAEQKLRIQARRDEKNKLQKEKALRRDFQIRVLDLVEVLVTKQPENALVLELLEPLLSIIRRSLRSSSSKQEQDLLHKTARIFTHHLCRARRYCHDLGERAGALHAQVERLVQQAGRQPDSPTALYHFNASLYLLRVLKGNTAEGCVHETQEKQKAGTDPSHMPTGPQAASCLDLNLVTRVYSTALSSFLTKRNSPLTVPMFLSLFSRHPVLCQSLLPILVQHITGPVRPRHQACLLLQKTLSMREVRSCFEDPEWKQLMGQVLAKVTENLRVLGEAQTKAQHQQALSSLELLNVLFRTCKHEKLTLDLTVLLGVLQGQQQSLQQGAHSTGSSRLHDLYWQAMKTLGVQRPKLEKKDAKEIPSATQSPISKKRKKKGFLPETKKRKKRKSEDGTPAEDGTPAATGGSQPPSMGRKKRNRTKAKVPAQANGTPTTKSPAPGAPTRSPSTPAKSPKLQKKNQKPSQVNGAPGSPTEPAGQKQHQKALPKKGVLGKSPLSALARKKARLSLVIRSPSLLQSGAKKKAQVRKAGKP
UniProt Q96RT1: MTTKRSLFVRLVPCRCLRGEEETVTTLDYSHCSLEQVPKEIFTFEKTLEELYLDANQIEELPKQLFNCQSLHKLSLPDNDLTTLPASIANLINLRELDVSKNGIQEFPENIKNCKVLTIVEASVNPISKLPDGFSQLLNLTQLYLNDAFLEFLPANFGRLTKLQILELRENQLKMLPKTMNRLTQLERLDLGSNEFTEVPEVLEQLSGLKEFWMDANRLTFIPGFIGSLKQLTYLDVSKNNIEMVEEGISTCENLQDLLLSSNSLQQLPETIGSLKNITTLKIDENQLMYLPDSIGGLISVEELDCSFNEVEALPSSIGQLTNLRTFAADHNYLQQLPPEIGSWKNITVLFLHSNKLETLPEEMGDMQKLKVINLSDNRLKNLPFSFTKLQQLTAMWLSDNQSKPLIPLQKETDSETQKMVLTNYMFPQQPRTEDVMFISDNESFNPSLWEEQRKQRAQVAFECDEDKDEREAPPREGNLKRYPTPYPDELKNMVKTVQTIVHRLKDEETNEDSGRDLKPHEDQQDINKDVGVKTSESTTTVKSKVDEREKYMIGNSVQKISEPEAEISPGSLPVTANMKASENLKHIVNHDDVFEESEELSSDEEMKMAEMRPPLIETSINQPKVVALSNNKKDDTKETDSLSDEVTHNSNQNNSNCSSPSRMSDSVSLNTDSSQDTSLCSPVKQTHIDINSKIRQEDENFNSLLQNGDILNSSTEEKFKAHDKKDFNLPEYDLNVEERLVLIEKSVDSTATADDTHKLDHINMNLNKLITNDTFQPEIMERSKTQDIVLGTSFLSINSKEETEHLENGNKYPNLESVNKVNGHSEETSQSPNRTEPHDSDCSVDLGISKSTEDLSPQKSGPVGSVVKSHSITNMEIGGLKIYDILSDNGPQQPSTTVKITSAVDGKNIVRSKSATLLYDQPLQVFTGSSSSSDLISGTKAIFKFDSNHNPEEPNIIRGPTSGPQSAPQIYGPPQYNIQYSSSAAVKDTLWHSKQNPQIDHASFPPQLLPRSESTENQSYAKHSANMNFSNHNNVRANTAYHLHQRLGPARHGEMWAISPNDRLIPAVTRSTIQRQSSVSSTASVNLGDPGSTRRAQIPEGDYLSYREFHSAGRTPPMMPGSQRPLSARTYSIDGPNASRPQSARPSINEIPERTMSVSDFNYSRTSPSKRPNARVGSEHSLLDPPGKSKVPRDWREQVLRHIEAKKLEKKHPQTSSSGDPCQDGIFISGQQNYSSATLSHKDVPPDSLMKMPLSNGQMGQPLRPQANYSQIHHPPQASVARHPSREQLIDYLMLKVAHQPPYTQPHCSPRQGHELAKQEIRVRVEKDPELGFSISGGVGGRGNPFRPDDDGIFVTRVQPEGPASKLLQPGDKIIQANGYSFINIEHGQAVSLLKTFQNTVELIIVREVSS
UniProt Q9BVC6: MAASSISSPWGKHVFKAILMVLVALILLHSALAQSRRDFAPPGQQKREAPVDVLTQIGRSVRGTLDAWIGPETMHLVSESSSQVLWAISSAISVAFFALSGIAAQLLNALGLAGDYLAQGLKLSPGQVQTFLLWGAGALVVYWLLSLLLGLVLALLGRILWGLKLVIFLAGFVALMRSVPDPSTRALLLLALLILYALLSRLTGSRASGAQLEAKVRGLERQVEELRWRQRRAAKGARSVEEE
UniProt Q99747: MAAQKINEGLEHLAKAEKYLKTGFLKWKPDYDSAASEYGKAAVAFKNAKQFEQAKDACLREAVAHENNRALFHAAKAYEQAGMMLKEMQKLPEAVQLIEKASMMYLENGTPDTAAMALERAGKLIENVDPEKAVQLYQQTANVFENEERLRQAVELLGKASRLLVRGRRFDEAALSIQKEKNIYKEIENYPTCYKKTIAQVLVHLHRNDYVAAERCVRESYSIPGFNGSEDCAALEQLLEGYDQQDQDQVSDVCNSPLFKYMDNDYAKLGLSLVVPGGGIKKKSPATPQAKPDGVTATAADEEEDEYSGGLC
UniProt Q9BQP7: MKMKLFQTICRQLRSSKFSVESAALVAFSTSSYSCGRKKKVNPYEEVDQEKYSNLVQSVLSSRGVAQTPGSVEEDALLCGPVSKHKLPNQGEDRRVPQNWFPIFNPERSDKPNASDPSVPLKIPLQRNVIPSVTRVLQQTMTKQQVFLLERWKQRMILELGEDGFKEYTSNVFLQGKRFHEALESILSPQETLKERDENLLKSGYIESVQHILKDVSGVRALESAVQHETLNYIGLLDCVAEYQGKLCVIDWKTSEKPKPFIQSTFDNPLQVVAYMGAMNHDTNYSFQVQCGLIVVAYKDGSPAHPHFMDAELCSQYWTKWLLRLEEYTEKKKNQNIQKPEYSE
UniProt Q96RP9: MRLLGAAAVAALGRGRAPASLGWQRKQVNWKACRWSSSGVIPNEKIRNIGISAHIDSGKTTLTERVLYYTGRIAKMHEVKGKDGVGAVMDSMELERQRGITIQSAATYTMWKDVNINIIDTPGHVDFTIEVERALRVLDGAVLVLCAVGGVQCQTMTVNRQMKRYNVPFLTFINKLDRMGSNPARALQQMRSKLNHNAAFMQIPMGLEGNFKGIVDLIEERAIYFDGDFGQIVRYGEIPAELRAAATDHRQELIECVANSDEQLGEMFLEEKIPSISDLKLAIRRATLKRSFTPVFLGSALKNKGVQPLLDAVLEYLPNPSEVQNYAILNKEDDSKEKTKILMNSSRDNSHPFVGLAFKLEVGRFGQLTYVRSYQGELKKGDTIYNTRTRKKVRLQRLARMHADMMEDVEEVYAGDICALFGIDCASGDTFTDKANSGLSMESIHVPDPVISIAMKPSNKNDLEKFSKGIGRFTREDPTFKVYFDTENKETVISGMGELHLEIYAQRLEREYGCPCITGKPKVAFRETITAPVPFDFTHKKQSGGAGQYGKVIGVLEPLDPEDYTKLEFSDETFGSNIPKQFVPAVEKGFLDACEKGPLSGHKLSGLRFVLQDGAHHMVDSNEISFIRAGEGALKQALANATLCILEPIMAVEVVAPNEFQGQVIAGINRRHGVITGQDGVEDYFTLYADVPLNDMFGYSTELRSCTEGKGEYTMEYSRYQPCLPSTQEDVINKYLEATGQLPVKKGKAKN
UniProt Q96PZ2, whole entry: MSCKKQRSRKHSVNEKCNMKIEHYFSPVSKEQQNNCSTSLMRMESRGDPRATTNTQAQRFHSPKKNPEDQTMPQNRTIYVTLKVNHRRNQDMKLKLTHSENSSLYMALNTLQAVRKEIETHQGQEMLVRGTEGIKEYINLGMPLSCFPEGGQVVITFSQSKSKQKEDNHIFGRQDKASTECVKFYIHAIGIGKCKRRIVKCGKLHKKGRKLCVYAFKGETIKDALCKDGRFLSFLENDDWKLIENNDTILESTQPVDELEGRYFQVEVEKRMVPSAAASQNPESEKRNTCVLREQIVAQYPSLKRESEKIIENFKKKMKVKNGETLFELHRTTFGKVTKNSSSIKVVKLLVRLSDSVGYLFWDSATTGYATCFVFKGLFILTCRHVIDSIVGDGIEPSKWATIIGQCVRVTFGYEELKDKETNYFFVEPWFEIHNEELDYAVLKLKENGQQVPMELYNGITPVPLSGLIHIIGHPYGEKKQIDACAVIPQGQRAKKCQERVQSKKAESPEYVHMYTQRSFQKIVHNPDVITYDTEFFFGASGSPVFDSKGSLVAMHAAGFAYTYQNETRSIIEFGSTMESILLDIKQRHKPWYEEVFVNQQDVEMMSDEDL

Target | NP40-soluble protein abundance (concentration: 0.1mM) | NP40-soluble protein abundance (concentration: 0.5mM) | NP40-soluble protein abundance (concentration: 1mM) | NP40-soluble protein abundance (concentration: 2mM) | NP40-soluble protein abundance (concentration: 4mM) | NP40-soluble protein abundance (concentration: 6mM) | NP40-soluble protein abundance (concentration: 8mM) | NP40-soluble protein abundance (concentration: 10mM)
UniProt Q96K76 and related entries | 1.005 ± 0.0046 | 1.01 ± 0.014 | 0.9726 ± 0.0042 | 0.948 ± 0.025 | 0.955 ± 0.038 | 0.949 ± 0.035 | 0.937 ± 0.016 | 0.911 ± 0.045
DSCC1 (UniProt Q9BVC3) | 1.03 ± 0.071 | 1.06 ± 0.031 | 1.02 ± 0.019 | 1.05 ± 0.011 | 1.08 ± 0.037 | 1.05 ± 0.052 | 1.05 ± 0.027 | 1.04 ± 0.022
ITPA (UniProt Q9BY32) | 0.959 ± 0.035 | 0.949 ± 0.026 | 0.933 ± 0.052 | 0.867 ± 0.11 | 0.845 ± 0.12 | 0.897 ± 0.1 | 0.88 ± 0.065 | 0.85 ± 0.094
UniProt Q9BUB5 and related entries | 0.971 ± 0.094 | 1.04 ± 0.022 | 0.987 ± 0.052 | 0.972 ± 0.042 | 0.947 ± 0.087 | 0.968 ± 0.051 | 0.975 ± 0.13 | 0.964 ± 0.026
UniProt Q9BTL3 | 1.03 ± 0.06 | 1.06 ± 0.036 | 1.06 ± 0.17 | 1.05 ± 0.11 | 0.96 ± 0.11 | 1.08 ± 0.015 | 1.18 ± 0.11 | 1.21 ± 0.091
UniProt Q9BW83 and related entries | 0.972 ± 0.019 | 1.05 ± 0.059 | 0.971 ± 0.02 | 0.958 ± 0.013 | 0.911 ± 0.036 | 0.95 ± 0.018 | 0.916 ± 0.016 | 0.944 ± 0.0068
AGPAT1 (UniProt Q99943) | 1.04 ± 0.034 | 0.963 ± 0.068 | 0.989 ± 0.11 | 0.957 ± 0.056 | 0.96 ± 0.021 | 0.95 ± 0.014 | 0.92 ± 0.043 | 0.871 ± 0.088
MCEE (UniProt Q96PE7) | 1 ± 0.081 | 0.962 ± 0.063 | 0.957 ± 0.08 | 0.959 ± 0.039 | 0.939 ± 0.017 | 0.933 ± 0.082 | 0.912 ± 0.079 | 0.919 ± 0.053
UniProt Q9BX40 and related entries | 0.984 ± 0.057 | 0.997 ± 0.064 | 1.11 ± 0.065 | 1.15 ± 0.057 | 1.18 ± 0.064 | 1.2 ± 0.03 | 1.23 ± 0.034 | 1.24 ± 0.069
RBM14 (UniProt Q96PK6) | 0.984 ± 0.049 | 0.997 ± 0.044 | 1.01 ± 0.048 | 1.07 ± 0.054 | 1.13 ± 0.053 | 1.17 ± 0.047 | 1.2 ± 0.042 | 1.19 ± 0.066
UniProt Q9BQG0 and related entries | 0.997 ± 0.011 | 1.01 ± 0.019 | 1.01 ± 0.038 | 0.989 ± 0.013 | 0.959 ± 0.036 | 0.938 ± 0.028 | 0.96 ± 0.042 | 0.942 ± 0.044
UniProt Q9BZE9 and related entries | 0.988 ± 0.046 | 1.01 ± 0.084 | 1.04 ± 0.073 | 1.02 ± 0.062 | 1.01 ± 0.062 | 1.02 ± 0.025 | 1.05 ± 0.063 | 1 ± 0.075
COPS4 (UniProt Q9BT78) | 0.898 ± 0.06 | 0.885 ± 0.037 | 1.01 ± 0.11 | 1.03 ± 0.1 | 1.03 ± 0.12 | 1.01 ± 0.12 | 0.977 ± 0.073 | 1.02 ± 0.12
UniProt Q99447 and related entries | 0.998 ± 0.022 | 1 ± 0.017 | 0.954 ± 0.045 | 0.939 ± 0.02 | 0.917 ± 0.047 | 0.909 ± 0.029 | 0.899 ± 0.057 | 0.857 ± 0.082
UniProt Q96Q45 and related entries | 0.881 ± 0.076 | 0.841 ± 0.16 | 0.903 ± 0.16 | 0.877 ± 0.091 | 0.869 ± 0.045 | 0.857 ± 0.19 | 0.965 ± 0.12 | 1.01 ± 0.042
UniProt Q96T23 and related entries | 1.02 ± 0.028 | 1.09 ± 0.081 | 1.25 ± 0.014 | 1.45 ± 0.1 | 1.72 ± 0.22 | 2.07 ± 0.29 | 2.49 ± 0.49 | 2.71 ± 0.62
TSG101 (UniProt Q99816) | 0.915 ± 0.046 | 0.894 ± 0.059 | 0.952 ± 0.065 | 0.925 ± 0.083 | 0.94 ± 0.079 | 0.932 ± 0.075 | 0.884 ± 0.1 | 0.921 ± 0.066
UniProt Q96RT1 and related entries | 0.966 ± 0.016 | 0.978 ± 0.031 | 0.99 ± 0.03 | 0.97 ± 0.054 | 0.972 ± 0.027 | 1 ± 0.031 | 1.01 ± 0.046 | 1.03 ± 0.072
UHRF2 (UniProt Q96PU4) | 1.01 ± 0.024 | 1.03 ± 0.075 | 0.961 ± 0.048 | 1.03 ± 0.036 | 0.9935 ± 0.0042 | 1.01 ± 0.073 | 0.979 ± 0.061 | 0.968 ± 0.064
TMEM109 (UniProt Q9BVC6) | 0.87 ± 0.032 | 0.882 ± 0.041 | 0.922 ± 0.043 | 0.9 ± 0.015 | 0.9002 ± 0.0038 | 0.91 ± 0.0094 | 0.873 ± 0.07 | 0.907 ± 0.012
NAPG (UniProt Q99747) | 0.877 ± 0.014 | 0.878 ± 0.078 | 0.981 ± 0.057 | 0.944 ± 0.1 | 0.908 ± 0.084 | 0.952 ± 0.085 | 0.884 ± 0.077 | 0.945 ± 0.11
UniProt Q96N66 and related entries | 1.05 ± 0.11 | 1.09 ± 0.038 | 0.977 ± 0.012 | 0.945 ± 0.041 | 0.951 ± 0.076 | 0.943 ± 0.037 | 0.913 ± 0.052 | 0.872 ± 0.061
UniProt Q96MT7-2 | 1.09 ± 0.063 | 0.959 ± 0.033 | 1 ± 0.093 | 0.863 ± 0.12 | 0.869 ± 0.04 | 0.915 ± 0.14 | 0.834 ± 0.052 | 0.786 ± 0.082
UniProt Q9BQP7 | 0.966 ± 0.04 | 0.955 ± 0.013 | 0.993 ± 0.062 | 0.959 ± 0.066 | 0.956 ± 0.096 | 0.938 ± 0.059 | 0.948 ± 0.073 | 0.943 ± 0.062
DHRS1 (UniProt Q96LJ7) | 1.04 ± 0.054 | 0.998 ± 0.067 | 0.987 ± 0.12 | 0.958 ± 0.078 | 0.946 ± 0.089 | 0.97 ± 0.093 | 0.921 ± 0.076 | 0.926 ± 0.095
GFM1 (UniProt Q96RP9) | 1.03 ± 0.011 | 1.022 ± 0.009 | 0.969 ± 0.018 | 0.946 ± 0.027 | 0.951 ± 0.053 | 0.929 ± 0.051 | 0.931 ± 0.04 | 0.906 ± 0.059
UniProt Q9BTA9 and related entries | 0.976 ± 0.076 | 0.888 ± 0.018 | 1.06 ± 0.045 | 1.03 ± 0.026 | 1.07 ± 0.028 | 1.02 ± 0.0059 | 1.08 ± 0.066 | 1.07 ± 0.087
MAK16 (UniProt Q9BXY0) | 1.04 ± 0.12 | 1.08 ± 0.068 | 1.12 ± 0.13 | 1.1 ± 0.18 | 1.32 ± 0.2 | 1.27 ± 0.15 | 1.23 ± 0.14 | 1.3 ± 0.21
UniProt Q9BUH6 | 0.989 ± 0.014 | 0.973 ± 0.034 | 1.04 ± 0.034 | 1.04 ± 0.062 | 1.05 ± 0.032 | 1.07 ± 0.023 | 1.03 ± 0.036 | 1.05 ± 0.084
FAM111A (UniProt Q96PZ2) | 1.01 ± 0.1 | 0.987 ± 0.078 | 1.06 ± 0.049 | 1.15 ± 0.047 | 1.1 ± 0.08 | 1.13 ± 0.15 | 1.23 ± 0.034 | 1.21 ± 0.091

Shown as a markdown table: part of the list above

| Target | NP40-soluble protein abundance (concentration: 0.1mM) | NP40-soluble protein abundance (concentration: 0.5mM) | NP40-soluble protein abundance (concentration: 1mM) | NP40-soluble protein abundance (concentration: 2mM) | NP40-soluble protein abundance (concentration: 4mM) | NP40-soluble protein abundance (concentration: 6mM) | NP40-soluble protein abundance (concentration: 8mM) | NP40-soluble protein abundance (concentration: 10mM) |
| --- | --- | --- | --- | --- | --- | --- | --- | --- |
| UniProt Q99447 and related entries | 0.998 ± 0.022 | 1 ± 0.017 | 0.954 ± 0.045 | 0.939 ± 0.02 | 0.917 ± 0.047 | 0.909 ± 0.029 | 0.899 ± 0.057 | 0.857 ± 0.082 |
| UniProt Q96Q45 and related entries | 0.881 ± 0.076 | 0.841 ± 0.16 | 0.903 ± 0.16 | 0.877 ± 0.091 | 0.869 ± 0.045 | 0.857 ± 0.19 | 0.965 ± 0.12 | 1.01 ± 0.042 |
| UniProt Q96T23 and related entries | 1.02 ± 0.028 | 1.09 ± 0.081 | 1.25 ± 0.014 | 1.45 ± 0.1 | 1.72 ± 0.22 | 2.07 ± 0.29 | 2.49 ± 0.49 | 2.71 ± 0.62 |
| TSG101 (UniProt Q99816) | 0.915 ± 0.046 | 0.894 ± 0.059 | 0.952 ± 0.065 | 0.925 ± 0.083 | 0.94 ± 0.079 | 0.932 ± 0.075 | 0.884 ± 0.1 | 0.921 ± 0.066 |
| UniProt Q96RT1 and related entries | 0.966 ± 0.016 | 0.978 ± 0.031 | 0.99 ± 0.03 | 0.97 ± 0.054 | 0.972 ± 0.027 | 1 ± 0.031 | 1.01 ± 0.046 | 1.03 ± 0.072 |
| UHRF2 (UniProt Q96PU4) | 1.01 ± 0.024 | 1.03 ± 0.075 | 0.961 ± 0.048 | 1.03 ± 0.036 | 0.9935 ± 0.0042 | 1.01 ± 0.073 | 0.979 ± 0.061 | 0.968 ± 0.064 |
| TMEM109 (UniProt Q9BVC6) | 0.87 ± 0.032 | 0.882 ± 0.041 | 0.922 ± 0.043 | 0.9 ± 0.015 | 0.9002 ± 0.0038 | 0.91 ± 0.0094 | 0.873 ± 0.07 | 0.907 ± 0.012 |
